Data source: PubChem BioAssay AID504784 (Drosophila RNAi Screening Center, 2011)
The screen tested about 17,000 reagents; below is an unselected part of those with a known target gene and a result. 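Each column is one replicate's B-score; the combined score over replicates was not deposited, so single values may mislead.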 A plus sign joins genes that one reagent is predicted to hit. Reagent sequences are not shown.

Aim: 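Genome-wide knock-down for genes giving too much or too little stored lipid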 (primary screen)
Cells: Drosophila Kc167 embryonic cells
Knock-down reagent: long dsRNA against Drosophila genes, about 250 ng dsRNA per well
Duration: 4 days
Conditions: cells fed 400 µM oleic acid bound to BSA
Measured: 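Microscope images give a droplet-to-nucleus area ratio, taken as log and converted to a screen-wide B-score; higher values mean greater lipid storage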
Reading the numbers: droplet/nuclear area B-score: higher = more stored lipid (overstorage)

The opening 6 records, to show the layout:
no.	target gene	amplicon	droplet/nuclear area B-score, replicate 1	droplet/nuclear area B-score, replicate 2	droplet/nuclear area B-score, replicate 3
1	Polr2G	DRSC16068	-0.0173	-0.402	
2	CG13690	DRSC00359	0.158	0.0557	
3	Prosalpha3	DRSC04644	0.47	2.64	
4	Rcd5	DRSC08180	-0.327	2.07	
5	Atg18a	DRSC10943	0.238	-2.1	
6	CG34041	DRSC22276	1.26	-0.364	

The listing, repeating the preview:
no.	target gene	amplicon	droplet/nuclear area B-score, replicate 1	droplet/nuclear area B-score, replicate 2	droplet/nuclear area B-score, replicate 3
1	Polr2G	DRSC16068	-0.0173	-0.402	
2	CG13690	DRSC00359	0.158	0.0557	
3	Prosalpha3	DRSC04644	0.47	2.64	
4	Rcd5	DRSC08180	-0.327	2.07	
5	Atg18a	DRSC10943	0.238	-2.1	
6	CG34041	DRSC22276	1.26	-0.364	
7	CG8891	DRSC03120	-2.74	-0.106	
8	mop	DRSC11065	-2.13	-0.235	-0.213
9	retm	DRSC03252	-1.84	0.822	
10	lectin-37Da	DRSC03278	2.33	1.17	0.139
11	lectin-37Da	DRSC22729	-4.42	0.135	
12	NPFR	DRSC12173	0.642	-0.63	
13	RpL3	DRSC16834	2.35	2.84	
14	msn	DRSC07990	0.648	1.15	
15	msn	DRSC08498	-0.396	-0.927	
16	CG10031	DRSC00286	-1.38	0.243	
17	spn-E	DRSC17064	1.74	0.346	
18	PLCXD	DRSC02427	-0.407	-2.22	0.204
19	CG17598	DRSC20636	0.0196	0.274	
20	Zmynd8	DRSC15310	-1.73	-0.681	
21	Muc14A	DRSC23264	-1.87	-1.27	
22	GalT1	DRSC22238	0.0954	-1.86	
23	CG32533	DRSC19443	-2.87	-0.734	
24	CG32533	DRSC19553	1.31	3.77	
25	ND-B14	DRSC07029	-0.655	1.37	
26	CG13058	DRSC09941	-0.29	-0.0538	
27	RpL21	DRSC03704	2.59	9.92	
28	Ugt301D1	DRSC02021	-1.27	0.0188	
29	CG5342	DRSC15776	0.213	-1.48	
30	CG43861 + CG12508 (retired record)	DRSC02170	-0.0512	-0.814	
31	Plod	DRSC10601	-1.31	1.21	
32	Plod	DRSC10602	0.52	-0.18	
33	Helz	DRSC11072	-0.351	2.07	-1.63
34	AOX4	DRSC15337	1.29	0.745	
35	Jarid2	DRSC10372	-0.154	0.533	
36	okr	DRSC00834	-0.151	-0.0728	
37	CG7423	DRSC20044	1.35	-0.812	
38	CG9519	DRSC20195	-1.31	-0.472	0.696
39	Eig71Eg	DRSC11154	-1.33	-0.0425	
40	stl	DRSC04396	-0.326	-0.816	
41	Sec61beta	DRSC07548	-1.87	-2.37	-0.573
42	Sec61beta	DRSC21512	-1.08	2.7	
43	CG13930	DRSC08399	-1.27	0.762	
44	CG11837	DRSC14397	-0.109	1.66	
45	CG42258	DRSC19741	-1.9	-0.275	3.04
46	CG42258	DRSC19783	1.34	0.414	-1.18
47	CG42258	DRSC23161	1.35	0.00543	
48	CG17111	DRSC15174	-0.564	0.621	
49	rig	DRSC06053	-0.451	-1.49	
50	rig	DRSC06400	0.247	0.106	
51	laf	DRSC12246	-0.822	0.00389	
52	pon	DRSC18823	-0.472	-0.658	
53	ZnT41F	DRSC04850	-0.469	-0.056	
54	m	DRSC20181	2.11	0.0298	-1.73
55	Traf-like	DRSC19894	-0.871	1.72	-0.533
56	dyl	DRSC08466	0.0532	0.912	
57	dyl	DRSC08467	-1.36	-2.68	
58	CG7878	DRSC16330	-0.367	0.44	
59	SkpB	DRSC07683	1.01	0.0378	
60	PVRAP	DRSC09966	-1.6	-0.622	
61	PVRAP	DRSC10577	-2.3	-1.11	
62	CG10508	DRSC11612	-0.522	-0.241	-1.35
63	CG10508	DRSC11613	-1.56	0.35	
64	Josd	DRSC18323	1.5	-0.656	
65	CG6005	DRSC15945	-0.774	4.45	
66	Rab8	DRSC11261	0.297	-1.03	-0.969
67	GstE3	DRSC06673	-0.443	1.39	
68	Khc	DRSC07448	-0.709	-0.249	
69	CngA	DRSC06580	0.0625	-1.55	
70	CngA	DRSC07362	0.329	1.36	
71	CG6665	DRSC07006	-1.13	-0.366	
72	Manf	DRSC14091	1.52	-4.36	
73	CG2540	DRSC19856	-0.536	-0.275	-2.63
74	Papst2	DRSC10924	-0.0466	0.227	-1.27
75	Syx16	DRSC20507	-0.753	1.13	
76	CG31663	DRSC00078	-0.125	0.896	
77	CG31663	DRSC00389	2.17	0	
78	CG31663	DRSC00390	0.218	0.646	
79	CG31663	DRSC00393	1.75	1.03	
80	RpL9	DRSC03418	5.86	4.82	
81	Vps16B	DRSC15304	0.12	-0.877	
82	CG6178	DRSC15984	-0.756	0.84	
83	Blos3	DRSC09573	0.0172	-1.3	
84	CG3526	DRSC17240	1.12	0.0327	
85	CG3526	DRSC18636	-1.1	0.0016	
86	Polr3A	DRSC19766	0.052	0.255	
87	Oatp74D	DRSC09491	0.364	-0.802	
88	Oatp74D	DRSC10883	0.243	-0.455	0.249
89	CG9921	DRSC20220	-0.585	-0.0683	
90	coil	DRSC07242	-1.24	0.163	
91	AGBE	DRSC06861	-0.789		
92	Sprn	DRSC10132	0.603	-0.0838	
93	lab	DRSC12627	-1.89	-1.43	
94	CG42375 + CG9288	DRSC16468	1.89	4.62	
95	FLASH	DRSC06872	0.00466	-0.636	
96	htt	DRSC16970	-0.0942	1.05	
97	RhoGAP16F	DRSC20025	-0.13	-0.319	
98	CG15880	DRSC00474	-0.0707	0.0282	
99	Pex1	DRSC11358	-0.682	1.22	1.18
100	CG31021	DRSC22319	-0.0236	0.00265	
101	dy	DRSC20325	-1.57	-0.292	-0.437
102	mRpL11	DRSC15482	0.711	4.78	
103	GAPcenA	DRSC10771	0.205	-0.982	
104	CG15719	DRSC19685	-1.46	-0.164	-2.25
105	CG13127	DRSC02223	0.137	0.387	
